Data as given in PubChem BioAssay AID1259254 (NCATS, 2017).

Assay: 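Genome-wide screen for genes that prevent DNA re-replication in cancer cells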 (primary screen)
Cells: human HCT116 colorectal cancer cells
Reagents: single siRNA against human genes
Time to read-out: 3 days
Measurement: 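Imaged Hoechst DNA stain sorts each cell into a cycle phase by DNA amount; per plate, G2 fraction set to 0% for non-targeting and 100% for GMNN siRNA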
Reading the numbers: G2 robust z-score and G2 cells, % of GMNN control: higher = more G2 cells, more excess DNA replication
Active means: 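Active siRNAs have a G2 robust z of 5 or more median absolute deviations over the median, which in these data means about 38% or higher of GMNN control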
Shown is a random part of about 59,000 reagents. Over the whole deposit, about 1,550 (2.6%) are marked active. 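G2 share is only a proxy for re-replication; each gene was hit by three separate siRNAs, and active genes were retested.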 Reagents against one gene are numbered here. Further read-outs or replicates are left out here. Not given: the amount of reagent.

Target gene,siRNA no.,G2 robust z-score,"G2 cells, % of GMNN control",call
ITGA8 (integrin subunit alpha 8),1,1.17,11.2,inactive
ITGA8 (integrin subunit alpha 8),2,-0.82,-2.8,inactive
ITGA8 (integrin subunit alpha 8),3,-0.202,1.54,inactive
BTLA (B and T lymphocyte associated),1,-0.604,-1.28,inactive
BTLA (B and T lymphocyte associated),2,4.04,31.4,inactive
BTLA (B and T lymphocyte associated),3,-0.42,0.0158,inactive
CDK8 (cyclin dependent kinase 8),1,-0.0762,2.43,inactive
CDK8 (cyclin dependent kinase 8),2,-1.17,-5.27,inactive
CDK8 (cyclin dependent kinase 8),3,0.431,6,inactive
FAM177B (family with sequence similarity 177 member B),1,0.661,7.62,inactive
FAM177B (family with sequence similarity 177 member B),2,0.749,8.23,inactive
FAM177B (family with sequence similarity 177 member B),3,1.09,10.7,inactive
STAU1 (staufen double-stranded RNA binding protein 1),1,1.1,10.7,inactive
STAU1 (staufen double-stranded RNA binding protein 1),2,-0.959,-3.78,inactive
STAU1 (staufen double-stranded RNA binding protein 1),3,-0.657,-1.66,inactive
APLNR (apelin receptor),1,-0.277,1.02,inactive
APLNR (apelin receptor),2,1.77,15.4,inactive
APLNR (apelin receptor),3,-0.927,-3.56,inactive
VPS45 (vacuolar protein sorting 45 homolog),1,-1.21,-5.52,inactive
VPS45 (vacuolar protein sorting 45 homolog),2,0.934,9.54,inactive
VPS45 (vacuolar protein sorting 45 homolog),3,0.161,4.1,inactive
TTC7B (tetratricopeptide repeat domain 7B),1,-0.252,1.19,inactive
TTC7B (tetratricopeptide repeat domain 7B),2,-0.824,-2.83,inactive
TTC7B (tetratricopeptide repeat domain 7B),3,0.547,6.82,inactive
NOL7 (nucleolar protein 7),1,5.13,39,active
NOL7 (nucleolar protein 7),2,-0.59,-1.18,inactive
NOL7 (nucleolar protein 7),3,1.28,12,inactive
SHISA5P1 (SHISA5 pseudogene 1),1,-0.442,-0.142,inactive
SHISA5P1 (SHISA5 pseudogene 1),2,-0.36,0.438,inactive
SHISA5P1 (SHISA5 pseudogene 1),3,0.0695,3.46,inactive
ZNF546 (zinc finger protein 546),1,2.97,23.9,inactive
ZNF546 (zinc finger protein 546),2,-0.961,-3.8,inactive
ZNF546 (zinc finger protein 546),3,-0.442,-0.143,inactive
ZNF571 (zinc finger protein 571),1,-0.821,-2.81,inactive
ZNF571 (zinc finger protein 571),2,0.199,4.37,inactive
ZNF571 (zinc finger protein 571),3,3.06,24.5,inactive
DPYSL3 (dihydropyrimidinase like 3),1,-0.949,-3.71,inactive
DPYSL3 (dihydropyrimidinase like 3),2,-0.761,-2.39,inactive
DPYSL3 (dihydropyrimidinase like 3),3,2.34,19.4,inactive
LOC645967,1,0.272,4.88,inactive
LOC645967,2,-0.503,-0.572,inactive
LOC645967,3,-0.801,-2.67,inactive
ARHGAP31 (Rho GTPase activating protein 31),1,0.317,5.2,inactive
ARHGAP31 (Rho GTPase activating protein 31),2,0.0642,3.42,inactive
ARHGAP31 (Rho GTPase activating protein 31),3,3.06,24.5,inactive

7 consecutive records from above, quoted:
Target gene,siRNA no.,G2 robust z-score,"G2 cells, % of GMNN control",call
APLNR (apelin receptor),2,1.77,15.4,inactive
APLNR (apelin receptor),3,-0.927,-3.56,inactive
VPS45 (vacuolar protein sorting 45 homolog),1,-1.21,-5.52,inactive
VPS45 (vacuolar protein sorting 45 homolog),2,0.934,9.54,inactive
VPS45 (vacuolar protein sorting 45 homolog),3,0.161,4.1,inactive
TTC7B (tetratricopeptide repeat domain 7B),1,-0.252,1.19,inactive
TTC7B (tetratricopeptide repeat domain 7B),2,-0.824,-2.83,inactive

Next reagents follow.
Target gene,siRNA no.,G2 robust z-score,"G2 cells, % of GMNN control",call
B3GNT2,1,-0.737,-2.22,inactive
B3GNT2,2,-1.13,-4.98,inactive
B3GNT2,3,1.67,14.7,inactive
IL1RAP (interleukin 1 receptor accessory protein),1,0.0811,3.54,inactive
IL1RAP (interleukin 1 receptor accessory protein),2,-0.186,1.66,inactive
IL1RAP (interleukin 1 receptor accessory protein),3,0.763,8.33,inactive
DBNL (drebrin like),1,2.33,19.4,inactive
DBNL (drebrin like),2,-0.486,-0.452,inactive
DBNL (drebrin like),3,-1.46,-7.31,inactive
SHKBP1 (SH3KBP1 binding protein 1),1,0.859,9.01,inactive
SHKBP1 (SH3KBP1 binding protein 1),2,0.591,7.12,inactive
SHKBP1 (SH3KBP1 binding protein 1),3,-0.864,-3.11,inactive
CTAGE6 (CTAGE family member 6),1,-0.977,-3.9,inactive
CTAGE6 (CTAGE family member 6),2,0.77,8.39,inactive
CTAGE6 (CTAGE family member 6),3,-0.799,-2.66,inactive
TMEM218 (transmembrane protein 218),1,-0.0533,2.59,inactive
TMEM218 (transmembrane protein 218),2,0.504,6.51,inactive
TMEM218 (transmembrane protein 218),3,-0.199,1.57,inactive
LRP6 (LDL receptor related protein 6),1,3.83,29.9,inactive
LRP6 (LDL receptor related protein 6),2,-1.11,-4.88,inactive
LRP6 (LDL receptor related protein 6),3,0.116,3.79,inactive
UBE2J1 (ubiquitin conjugating enzyme E2 J1),1,-0.118,2.14,inactive
UBE2J1 (ubiquitin conjugating enzyme E2 J1),2,2.27,18.9,inactive
UBE2J1 (ubiquitin conjugating enzyme E2 J1),3,3.41,27,inactive
